Data taken from paper PMC10404369, “Epithelial cell adhesion molecule (EpCAM) regulates HGFR signaling to promote colon cancer progression and metastasis” (Journal of Translational Medicine, 2023).
Results are given in words; binding and its absence hold for the method and conditions named. For some of these results: In cells and extracts the contact can be indirect. Some entries that bind do so weakly or less than the wild type. For some of these results: Sequences can lack the tags named with a protein. Blank lines part the entries; values can stand above or below the molecule they belong to.

The chains behind the UniProt entries cited, without tags or fusion partners. Where a name states a change or a piece, a line headed by the entry shows the natural chain unless it says otherwise. A line that says so, or that is headed by a name, gives the form on record, which may keep a tag or linker. Residues count along the entry.
UniProt P08581: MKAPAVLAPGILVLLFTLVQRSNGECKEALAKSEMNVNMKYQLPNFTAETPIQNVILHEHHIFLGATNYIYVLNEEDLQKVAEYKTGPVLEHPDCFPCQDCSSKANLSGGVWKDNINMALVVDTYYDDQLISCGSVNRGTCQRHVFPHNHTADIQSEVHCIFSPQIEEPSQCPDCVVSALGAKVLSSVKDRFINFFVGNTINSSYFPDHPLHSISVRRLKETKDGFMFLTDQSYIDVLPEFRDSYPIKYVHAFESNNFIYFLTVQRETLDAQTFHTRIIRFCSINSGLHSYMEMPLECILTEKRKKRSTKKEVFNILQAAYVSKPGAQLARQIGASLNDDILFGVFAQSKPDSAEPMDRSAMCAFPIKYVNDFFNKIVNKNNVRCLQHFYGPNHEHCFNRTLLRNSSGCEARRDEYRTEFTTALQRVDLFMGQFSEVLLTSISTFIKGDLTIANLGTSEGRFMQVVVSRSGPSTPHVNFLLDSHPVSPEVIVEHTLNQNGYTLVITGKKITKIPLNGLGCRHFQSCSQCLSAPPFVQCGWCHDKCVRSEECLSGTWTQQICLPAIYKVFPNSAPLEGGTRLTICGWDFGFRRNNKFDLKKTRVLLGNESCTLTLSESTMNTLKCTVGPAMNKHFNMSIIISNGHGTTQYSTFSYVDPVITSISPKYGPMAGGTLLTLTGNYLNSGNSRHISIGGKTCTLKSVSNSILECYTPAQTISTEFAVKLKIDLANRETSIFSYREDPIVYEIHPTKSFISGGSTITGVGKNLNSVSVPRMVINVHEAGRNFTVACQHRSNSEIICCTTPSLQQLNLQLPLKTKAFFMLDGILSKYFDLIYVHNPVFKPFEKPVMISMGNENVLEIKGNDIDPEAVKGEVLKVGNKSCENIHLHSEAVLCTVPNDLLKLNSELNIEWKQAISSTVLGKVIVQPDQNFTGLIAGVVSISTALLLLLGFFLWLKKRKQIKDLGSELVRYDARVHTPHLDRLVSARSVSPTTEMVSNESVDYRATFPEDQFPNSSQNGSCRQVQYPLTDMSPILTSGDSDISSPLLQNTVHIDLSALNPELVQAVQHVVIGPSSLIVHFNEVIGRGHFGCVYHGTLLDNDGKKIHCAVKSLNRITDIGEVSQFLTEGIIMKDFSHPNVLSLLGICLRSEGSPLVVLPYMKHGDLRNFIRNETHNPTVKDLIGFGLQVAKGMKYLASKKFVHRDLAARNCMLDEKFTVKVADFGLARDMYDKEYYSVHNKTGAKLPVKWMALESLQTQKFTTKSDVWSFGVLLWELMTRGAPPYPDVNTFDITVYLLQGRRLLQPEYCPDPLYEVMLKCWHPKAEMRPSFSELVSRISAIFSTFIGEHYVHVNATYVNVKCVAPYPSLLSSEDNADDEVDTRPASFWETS
Hepatocyte growth factor receptor (HGFR), endogenous (human (endogenous in HCT116 and HT29)): residues 25-1390 of P08581
HGFRECD-c-Myc, extracellular domain of HGFR with c-Myc tag: residues 25-932 of P08581

How the values were obtained:
[1] = biological target: T1, EpEX_(ΔEGFI+II)-Fc (human) (UniProt P16422); assay: ELISA; HGFR-His recombinant protein (2 μg/ml) added to plates coated with EGF-like-domain deletion mutant-Fc (1 μg/ml); TMB colorimetric peroxidase assay; both purified
T1 sequence: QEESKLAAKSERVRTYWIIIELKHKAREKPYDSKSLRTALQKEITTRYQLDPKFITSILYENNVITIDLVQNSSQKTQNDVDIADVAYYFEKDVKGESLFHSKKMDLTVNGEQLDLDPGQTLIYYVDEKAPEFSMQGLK

[2] = biological target: Hepatocyte growth factor receptor (HGFR), endogenous (human (endogenous in HCT116 and HT29)) (UniProt P08581); assay: co-IP; endogenous proteins; HCT116 cells treated with NMIgG or EpAb2-6 (20 μg/ml) for 24 h, IP with anti-EpCAM or anti-HGFR antibodies, Western blotting
[3] = biological target: Hepatocyte growth factor receptor (HGFR), endogenous (human (endogenous in HCT116 and HT29)) (UniProt P08581); assay: co-IP; endogenous proteins in HCT116 and HT29 cells; DTSSP cross-linker used to stabilise the complex; IP and Western blotting
HGFR-Fc protein (human) = HGFR-Fc protein (human) (UniProt P08581); assay: ELISA; EpEX-His (2 μg/ml) co-treated with 1 μg IgG or EpAb2-6 added to HGFR-Fc-coated (1 μg/ml) plates; TMB colorimetric peroxidase assay; both purified
[4] = biological target: Hepatocyte growth factor receptor (HGFR), endogenous (human (endogenous in HCT116 and HT29)) (UniProt P08581); assay: FRET or BRET; TIRF microscopy with FRET on fixed HCT116 cells co-stained with HGFR (AF488, donor) and EpEX (AF568, acceptor) antibodies; also after 24 h treatment with NMIgG, MT201, EpAb2-6 or hEpAb2-6 (20 μg/ml)
[5] = biological target: HGFRECD-c-Myc, extracellular domain of HGFR with c-Myc tag (human) (UniProt P08581); assay: co-IP; HEK293T cells transfected with HGFRECD-c-Myc and EpCAM-V5 (full-length or EGF-like-domain deletion mutants); IP with anti-V5 or anti-c-Myc antibody, Western blotting
[6] = biological target: HGFRECD-c-Myc, extracellular domain of HGFR with c-Myc tag (human) (UniProt P08581); assay: co-IP; HEK293T cells transfected with HGFRECD-c-Myc and EpEX-His (full-length or EGF-like-domain deletion mutants); IP with anti-c-Myc, Western blotting with anti-cMyc and anti-His

B1: Epithelial cell adhesion molecule (EpCAM), endogenous (protein, UniProt P16422 24-314)
chain: QEECVCENYKLAVNCFVNNNRQCQCTSVGAQNTVICSKLAAKCLVMKAEMNGSKLGRRAKPEGALQNNDGLYDPDCDESGLFKAKQCNGTSMCWCVNTAGVRRTDKDTEITCSERVRTYWIIIELKHKAREKPYDSKSLRTALQKEITTRYQLDPKFITSILYENNVITIDLVQNSSQKTQNDVDIADVAYYFEKDVKGESLFHSKKMDLTVNGEQLDLDPGQTLIYYVDEKAPEFSMQGLKAGVIAVIVVVVIAVVAGIVVLVISRKKRMAKYEKAEIKEMGEMHRELNA
binding [2]: binds
binding [3]: binds

B2: EpEX-His recombinant protein, purified (domain or fragment, UniProt P16422 24-265)
chain: QEECVCENYKLAVNCFVNNNRQCQCTSVGAQNTVICSKLAAKCLVMKAEMNGSKLGRRAKPEGALQNNDGLYDPDCDESGLFKAKQCNGTSMCWCVNTAGVRRTDKDTEITCSERVRTYWIIIELKHKAREKPYDSKSLRTALQKEITTRYQLDPKFITSILYENNVITIDLVQNSSQKTQNDVDIADVAYYFEKDVKGESLFHSKKMDLTVNGEQLDLDPGQTLIYYVDEKAPEFSMQGLK
binding (HGFR-Fc protein (human)): binds

B4: EpCAM-V5, full-length (protein, UniProt P16422 24-314)
chain: B1 chain
binding [5]: binds

B5: EpEX-His, wild type, expressed in HEK293T (domain or fragment, UniProt P16422 24-265)
chain: B2 chain
binding [6]: binds

The remaining lines, values ahead:

binding [1]: no binding (tested: 2 μg/ml)
Molecule: HGFRECD-His recombinant protein (from UniProt P08581 25-932) (domain or fragment)

binding [4]: binds
B3: Extracellular domain of EpCAM (EpEX), endogenous in HCT116 cells, stained with an EpEX antibody (domain or fragment, UniProt P16422 24-265)
chain: B2 chain
